In patent US12590063B2, “Phenol derivative” (Sumitomo Pharma Co., Ltd., priority 2020, dated 2026):
At least one compound was matched to its structure with a doubt left.

Sequences of proteins named here, by UniProt entry; tags and fusion partners are left off.
UniProt Q8NER1, whole entry: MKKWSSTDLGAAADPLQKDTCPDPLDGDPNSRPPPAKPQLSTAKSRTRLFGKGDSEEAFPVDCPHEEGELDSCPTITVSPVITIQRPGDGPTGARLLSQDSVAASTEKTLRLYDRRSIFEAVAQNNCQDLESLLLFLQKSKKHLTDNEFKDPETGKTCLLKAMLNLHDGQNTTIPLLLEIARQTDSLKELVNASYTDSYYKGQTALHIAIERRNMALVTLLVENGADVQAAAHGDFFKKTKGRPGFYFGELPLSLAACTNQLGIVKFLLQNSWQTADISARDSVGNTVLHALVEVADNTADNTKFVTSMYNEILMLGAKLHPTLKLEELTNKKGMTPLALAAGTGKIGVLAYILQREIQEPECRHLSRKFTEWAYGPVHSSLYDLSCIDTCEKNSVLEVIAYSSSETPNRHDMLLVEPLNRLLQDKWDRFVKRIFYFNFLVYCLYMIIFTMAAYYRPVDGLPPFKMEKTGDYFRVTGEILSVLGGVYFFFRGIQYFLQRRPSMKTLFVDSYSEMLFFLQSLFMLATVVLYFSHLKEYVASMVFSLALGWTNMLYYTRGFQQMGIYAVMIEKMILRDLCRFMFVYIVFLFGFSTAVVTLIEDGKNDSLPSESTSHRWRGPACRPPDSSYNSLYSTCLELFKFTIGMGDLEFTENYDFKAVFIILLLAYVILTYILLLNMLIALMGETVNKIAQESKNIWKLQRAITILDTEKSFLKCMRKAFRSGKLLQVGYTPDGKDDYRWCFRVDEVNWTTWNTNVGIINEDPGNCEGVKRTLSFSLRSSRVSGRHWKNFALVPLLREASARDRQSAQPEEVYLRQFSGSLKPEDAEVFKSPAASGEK

Legend:
Human TRPV1 = target: T1, Human TRPV1 (Homo sapiens, UniProt Q8NER1); assay: Evaluation of agonistic properties using human TRPV1 transiently expressing cells; type: cell-based; conditions: evaluation test for TRPV-1-agonistic properties, summary of Tables 3 and 4
T1 construct: the TRPV1 gene (GenBank NP_542435.2) had been inserted; expressed in transfected cells; host or cells: HEK293 cells (cat #CCL-82.2, ATCC), transient transfection with pcDNA3.1
Text: Test Example 1: Evaluation of Agonistic Properties Using Human TRPV1 Transiently Expressing Cells
(1) Generation of Human TRPV1 Transiently Expressing Cells
Human TRPV1 transiently expressing cells were generated and subjected to culture. Specifically, HEK293 cells (cat #CCL-82.2, ATCC) were used as host cells. Human TRPV1 and apoaequorin were transiently expressed by introducing the mammalian cell expression pcDNA3.1 vector (cat #v790-20, Invitrogen) into which the TRPV1 gene (GenBank NP_542435.2) had been inserted.
The Dulbecco's Modified Eagle's Medium (DMEM) medium (cat #11550-043, Thermo Fisher Scientific) containing 10% inactivated fetal bovine serum (cat #10270-106, Thermo Fisher Scientific) was used as the medium, and the culture was carried out in tissue culture dishes (cat #3020-100, Iwaki). During the culture, cells were collected every 2 to 3 days by treating with PBS containing 10% 2.5 g/1-trypsin/[…] solution, phenol red (cat #32777-44, Nacalai Tesque), and passage culture was carried out. […]
FDSS7000 (Hamamatsu Photonics K.K.) was used for detection of TRPV1 agonist-stimulated luminescence signals. […] The luminescence signals (center wavelength: 465 nm) after addition of the test compounds were measured, and the Rlu (Max−Min) was calculated.

normal rats = assay: Evaluation of effect of increasing swallowing in normal rats; type: in vivo, rat; conditions: anesthetized normal rats
Experimental: Test Example 5: Evaluation of Effect of Increasing Swallowing in Normal Rats
This test is for evaluating the effect of increasing swallowing function of drugs. It has been reported that induction of the swallowing reflex in normal rats using NaCl-containing water suppresses the number of swallows, and the increase in swallowing function was evaluated using a NaCl-containing solvent. After the induction of anesthesia in Crl:CD(SD) male rats (7 to 8 rats per group, 8 to 9 weeks old, body weight 280 to 310 g: at the time of arrival), the animals were sheared under the jaw with clippers and held in a supine position on a heat pad kept at 37° C. to prevent limb movement. A rat sonde was inserted into the animals' mouths, and the tip of the sonde was retained in the pharynx. Under this condition, the test substance administration solution was administered at 12 ml/h for 10 seconds using an infusion pump, and the swallowing movements were measured for 30 seconds from the initiation of administration. Note that the vehicle used was saline solution containing 1% ethanol and 0.1% Tween 80.

Structure (SMILES)	TRPV-1-agonistic activity (in words) (Human TRPV1)	number of swallowings compared to the solvent administered group (Dunnett's test) (normal rats)
COc1cc(CC(=O)Nc2cccc([C@H]3CC[C@@H](OC(=O)Cc4cccc(C)c4)CC3)c2)ccc1O [Example 9, cis-4-{3-[2-(4-hydroxy-3-methoxyphenyl)acetamido]phenyl}cyclohexyl (3-methylphenyl)acetate]	stronger TRPV-1-agonistic activity	–
COc1cc(CC(=O)Nc2cccc([C@H]3CC[C@@H](OC(=O)Cc4ccccc4Cl)CC3)c2)ccc1O [Example 10, cis-4-{3-[2-(4-hydroxy-3-methoxyphenyl)acetamido]phenyl}cyclohexyl (2-chlorophenyl)acetate]	stronger TRPV-1-agonistic activity	–
COc1cc(CC(=O)Nc2cccc([C@H]3CC[C@@H](OC(C)=O)CC3)c2)ccc1O [Example 12, cis-4-{3-[2-(4-hydroxy-3-methoxyphenyl)acetamido]phenyl}cyclohexyl acetate]	–	significantly increased
